# Cell number after 72 h of treatment

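Human melanoma cell lines in 1,536-well plates were treated with a pair of drugs for 72 h, then fixed, stained and imaged. The read-out is cell count (nuclei) in % of the DMSO control; lower values mean stronger growth inhibition or killing. Concentrations were fixed for each drug; these are the lower of two levels, a fifth of the higher. The file gives one value for each pair and line, without errors, so small differences may be noise.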
An unselected part of the screen is shown.
An entry leaves out what has no value listed here.
A dash means that no value is listed here.

All values are for the listed drug together with GW2580 (1000 nM): COc1ccc(COc2ccc(Cc3cnc(N)nc3N)cc2OC)cc1

* CN1CCN(c2ccc3nc(-c4c(N)c5c(F)cccc5[nH]c4=O)[nH]c3c2)CC1 at 100 nM | A101D: 105; A2058: 90.2; 501mel: 65.8; C32: 99.5
* C=C(c1ccc(C(=O)O)cc1)c1cc2c(cc1C)C(C)(C)CCC2(C)C at 2000 nM | A101D: 92.0; A2058: 94.6; 501mel: 99.3; C32: 92.5
* NC1(c2ccc(-c3nc4ccn5c(=O)[nH]nc5c4cc3-c3ccccc3)cc2)CCC1 at 400 nM | A101D: 82.2; A2058: 92.4; 501mel: 77.0; C32: 85.2
* N.N.[Cl][Pt][Cl] at 1600 nM | A101D: 94.7; A2058: 92.8; 501mel: 70.1; C32: 109
* O=C(O)[C@@H]1[O][Sb](=[O])([O][Sb]2(=[O])[O][C@H]([C@H](O)CO)[C@H](O)[C@H](C(=O)O)[O]2)[O][C@H]([C@H](O)CO)[C@@H]1O (some centres undefined) at 2000 nM | A101D: 96.0; A2058: 105; 501mel: 107; C32: 105
* Oc1cc(-c2nc(-c3ccccc3)[nH]c2-c2ccncc2)ccc1Cl at 200 nM | A375: 108; A101D: 105; A2058: 106; 501mel: 93.6; C32: 104
* O=C1NC(=O)/C(=C/c2ccc(-c3ccc(F)cc3O)o2)S1 at 1000 nM | A375: 91.2; A101D: 93.1; A2058: 97.5; 501mel: 112; C32: 98.9
* CN(c1ncccc1CNc1nc(Nc2ccc3c(c2)CC(=O)N3)ncc1C(F)(F)F)S(C)(=O)=O at 80 nM | A101D: 97.9; A2058: 90.9; 501mel: 78.2; C32: 74.5
* N#CC[C@H](C1CCCC1)n1cc(-c2ncnc3[nH]ccc23)cn1 at 1000 nM | A101D: 107; A2058: 87.9; 501mel: 111; C32: 89.6
* CC(C)CCN1c2nc(Nc3cc(F)c(O)c(F)c3)ncc2N(C)C(=O)C1C (centres undefined) at 200 nM | A375: 104; A101D: 93.6; A2058: 98.0; 501mel: 87.5; C32: 90.3
* NC(=O)c1ccc(N(C(N)=O)c2c(F)cccc2F)nc1-c1ccc(F)cc1F at 400 nM | A101D: 92.2; A2058: 82.9; 501mel: 84.9; C32: 87.0
* OCc1c[nH]c2ccccc12 at 800 nM | A101D: 103; A2058: 93.7; 501mel: 96.3; C32: 104
* C[C@@H](Oc1cc(-c2cnn(C3CCNCC3)c2)cnc1N)c1c(Cl)ccc(F)c1Cl at 200 nM | A101D: 94.3; A2058: 93.5; 501mel: 103; C32: 79.7
* CCN(CC)CCCCNc1ncc2cc(-c3cc(OC)cc(OC)c3)c(NC(=O)NC(C)(C)C)nc2n1 at 100 nM | A375: 83.8; A101D: 117; A2058: 97.4; 501mel: 92.3; C32: 111
* O=C(Nc1cc(C(F)(F)F)cc(C(F)(F)F)c1)c1cc(Cl)ccc1O at 16 nM | A101D: 95.7; A2058: 99.5; 501mel: 104; C32: 105
* COc1ccc2c(c1)CCC1C2CCC2(C)C(NCCCCCCN3C(=O)C=CC3=O)CCC12 (centres undefined) at 400 nM | A375: 58.1; A101D: 98.4; A2058: 69.8; 501mel: 111; C32: 71.6
* COC(=O)c1sccc1S(=O)(=O)Nc1ccc(Nc2ccccc2)cc1OC at 1000 nM | A375: 97.1; A101D: 116; A2058: 89.8; 501mel: 126; C32: 100
* CS(=O)(=O)CCNCc1ccc(-c2ccc3ncnc(Nc4ccc(OCc5cccc(F)c5)c(Cl)c4)c3c2)o1 at 800 nM | A101D: 87.2; A2058: 91.1; 501mel: 73.8; C32: 78.6
* N#Cc1c(O)c2c(-c3ccc(-c4ccccc4O)cc3)csc2[nH]c1=O at 2000 nM | A375: 100; A101D: 101; A2058: 102; 501mel: 75.1; C32: 105
* Cc1cc(Nc2cc(N3CCN(C)CC3)nc(Sc3ccc(NC(=O)C4CC4)cc3)n2)n[nH]1 at 6 nM | A101D: 94.9; A2058: 82.3; 501mel: 91.7; C32: 92.5
* CCCCCCCCCCCC1=C(O)C(=O)C=C(O)C1=O at 1200 nM | A375: 116; A101D: 99.5; A2058: 100; 501mel: 102; C32: 112
* CC[C@]1(O)C[C@H]2CN(CCc3c([nH]c4ccccc34)[C@@](C(=O)OC)(c3cc4c(cc3OC)N(C=O)[C@H]3[C@@](O)(C(=O)OC)[C@H](OC(C)=O)[C@]5(CC)C=CCN6CC[C@]43[C@@H]65)C2)C1 at 0.1 nM | A101D: 94.4; A2058: 101; 501mel: 85.7; C32: 85.1
* C[C@]12O[C@H](C[C@]1(O)CO)n1c3ccccc3c3c4c(c5c6ccccc6n2c5c31)CNC4=O at 4 nM | A101D: 94.1; A2058: 109; 501mel: 102; C32: 103

Repeated from the top, 3 entries:

Second drug	A375	A101D	A2058	501mel	C32
CN1CCN(c2ccc3nc(-c4c(N)c5c(F)cccc5[nH]c4=O)[nH]c3c2)CC1 at 100 nM	-	105	90.2	65.8	99.5
C=C(c1ccc(C(=O)O)cc1)c1cc2c(cc1C)C(C)(C)CCC2(C)C at 2000 nM	-	92.0	94.6	99.3	92.5
NC1(c2ccc(-c3nc4ccn5c(=O)[nH]nc5c4cc3-c3ccccc3)cc2)CCC1 at 400 nM	-	82.2	92.4	77.0	85.2

Source: doi:10.1371/journal.pone.0140310, primary screening data, rounded.